According to article PMC7311471, “The iron–sulphur cluster in human DNA2 is required for all biochemical activities of DNA2”:
These are yes or no findings as the source states them, for the method shown. In cells and extracts the contact can be indirect. Some binding calls cover weakened binding; strength is not graded here. Tags and fused reporters may be left off the sequences shown. Each block holds one molecule with its values, some of them ahead of it.

Protein sequences, listed by entry. Tags and fused reporters are not part of them. Lines headed by an entry give the natural chain unless they say otherwise; changes in a name come on top.
UniProt Q96T76: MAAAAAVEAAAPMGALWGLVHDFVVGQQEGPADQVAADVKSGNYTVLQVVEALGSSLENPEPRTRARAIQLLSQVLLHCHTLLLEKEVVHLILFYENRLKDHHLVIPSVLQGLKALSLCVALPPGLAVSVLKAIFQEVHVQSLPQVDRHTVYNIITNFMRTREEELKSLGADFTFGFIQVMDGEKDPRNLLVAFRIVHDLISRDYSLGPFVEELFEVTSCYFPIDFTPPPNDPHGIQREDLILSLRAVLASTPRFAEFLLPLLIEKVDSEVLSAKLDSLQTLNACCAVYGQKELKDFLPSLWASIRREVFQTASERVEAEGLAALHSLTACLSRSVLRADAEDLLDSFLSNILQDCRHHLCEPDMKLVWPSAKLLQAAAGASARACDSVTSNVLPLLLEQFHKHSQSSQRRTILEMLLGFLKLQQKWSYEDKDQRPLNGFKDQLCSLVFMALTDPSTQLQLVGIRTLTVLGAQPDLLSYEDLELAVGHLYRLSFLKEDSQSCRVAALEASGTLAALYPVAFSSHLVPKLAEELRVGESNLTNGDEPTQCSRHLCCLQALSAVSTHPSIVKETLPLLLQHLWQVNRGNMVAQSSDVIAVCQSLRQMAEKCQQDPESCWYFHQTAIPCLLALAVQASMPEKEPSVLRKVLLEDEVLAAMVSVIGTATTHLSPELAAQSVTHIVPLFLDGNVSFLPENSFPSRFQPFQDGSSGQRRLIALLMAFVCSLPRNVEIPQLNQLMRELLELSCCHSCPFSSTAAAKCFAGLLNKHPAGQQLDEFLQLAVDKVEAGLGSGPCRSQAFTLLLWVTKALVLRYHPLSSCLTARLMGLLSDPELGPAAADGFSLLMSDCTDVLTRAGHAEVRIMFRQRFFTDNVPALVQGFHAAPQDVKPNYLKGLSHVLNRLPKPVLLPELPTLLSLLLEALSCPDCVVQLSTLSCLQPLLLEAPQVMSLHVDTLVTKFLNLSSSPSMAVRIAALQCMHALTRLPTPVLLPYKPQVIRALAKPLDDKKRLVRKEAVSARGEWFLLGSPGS

Key:
FLAG-DNA2 C396S (human) = biological target: T1, FLAG-DNA2 C396S (human) (UniProt P51530); assay: co-IP; FLAG-DNA2 variants over-expressed in HEK293T as bait, anti-FLAG M2 beads 1 h at 4 °C; lysis in 100 mM NaCl, 50 mM Tris-HCl pH 8.0, 10% glycerol, 1 mM EDTA, 0.1% NP-40, 2 mM DTT, Benzonase; eluted with 3x FLAG peptide; Western blot for endogenous MMS19, CIAO1, MIP18
T1 sequence: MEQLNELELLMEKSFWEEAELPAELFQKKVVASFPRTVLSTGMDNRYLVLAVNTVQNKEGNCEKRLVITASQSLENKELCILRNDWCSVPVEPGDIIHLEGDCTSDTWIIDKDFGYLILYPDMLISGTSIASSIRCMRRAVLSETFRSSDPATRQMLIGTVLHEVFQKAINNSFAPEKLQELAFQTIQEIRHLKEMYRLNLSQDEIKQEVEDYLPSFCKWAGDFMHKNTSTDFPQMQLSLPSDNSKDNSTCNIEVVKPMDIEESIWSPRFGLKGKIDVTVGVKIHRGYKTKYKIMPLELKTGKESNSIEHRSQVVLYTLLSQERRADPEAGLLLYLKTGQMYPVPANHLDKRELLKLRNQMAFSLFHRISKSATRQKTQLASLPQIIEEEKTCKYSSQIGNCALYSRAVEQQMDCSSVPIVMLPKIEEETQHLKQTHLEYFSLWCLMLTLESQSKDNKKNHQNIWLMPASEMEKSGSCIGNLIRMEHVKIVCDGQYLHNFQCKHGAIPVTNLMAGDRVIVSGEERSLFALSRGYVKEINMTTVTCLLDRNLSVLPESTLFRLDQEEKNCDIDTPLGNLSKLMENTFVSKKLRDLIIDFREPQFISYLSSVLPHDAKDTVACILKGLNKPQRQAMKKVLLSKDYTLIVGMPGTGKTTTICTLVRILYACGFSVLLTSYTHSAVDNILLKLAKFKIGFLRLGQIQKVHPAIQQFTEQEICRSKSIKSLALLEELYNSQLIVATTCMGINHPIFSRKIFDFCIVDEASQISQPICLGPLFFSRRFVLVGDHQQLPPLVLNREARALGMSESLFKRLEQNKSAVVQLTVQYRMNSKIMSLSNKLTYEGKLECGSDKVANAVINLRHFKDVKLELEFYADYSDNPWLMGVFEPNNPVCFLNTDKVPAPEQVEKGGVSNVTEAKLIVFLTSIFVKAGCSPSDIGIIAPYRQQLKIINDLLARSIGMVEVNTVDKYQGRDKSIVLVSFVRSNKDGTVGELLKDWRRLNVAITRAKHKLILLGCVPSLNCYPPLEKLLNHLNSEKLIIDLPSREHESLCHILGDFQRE

FLAG-DNA2 C136S (human) = biological target: T2, FLAG-DNA2 C136S (human) (UniProt P51530); assay: as above
T2 sequence: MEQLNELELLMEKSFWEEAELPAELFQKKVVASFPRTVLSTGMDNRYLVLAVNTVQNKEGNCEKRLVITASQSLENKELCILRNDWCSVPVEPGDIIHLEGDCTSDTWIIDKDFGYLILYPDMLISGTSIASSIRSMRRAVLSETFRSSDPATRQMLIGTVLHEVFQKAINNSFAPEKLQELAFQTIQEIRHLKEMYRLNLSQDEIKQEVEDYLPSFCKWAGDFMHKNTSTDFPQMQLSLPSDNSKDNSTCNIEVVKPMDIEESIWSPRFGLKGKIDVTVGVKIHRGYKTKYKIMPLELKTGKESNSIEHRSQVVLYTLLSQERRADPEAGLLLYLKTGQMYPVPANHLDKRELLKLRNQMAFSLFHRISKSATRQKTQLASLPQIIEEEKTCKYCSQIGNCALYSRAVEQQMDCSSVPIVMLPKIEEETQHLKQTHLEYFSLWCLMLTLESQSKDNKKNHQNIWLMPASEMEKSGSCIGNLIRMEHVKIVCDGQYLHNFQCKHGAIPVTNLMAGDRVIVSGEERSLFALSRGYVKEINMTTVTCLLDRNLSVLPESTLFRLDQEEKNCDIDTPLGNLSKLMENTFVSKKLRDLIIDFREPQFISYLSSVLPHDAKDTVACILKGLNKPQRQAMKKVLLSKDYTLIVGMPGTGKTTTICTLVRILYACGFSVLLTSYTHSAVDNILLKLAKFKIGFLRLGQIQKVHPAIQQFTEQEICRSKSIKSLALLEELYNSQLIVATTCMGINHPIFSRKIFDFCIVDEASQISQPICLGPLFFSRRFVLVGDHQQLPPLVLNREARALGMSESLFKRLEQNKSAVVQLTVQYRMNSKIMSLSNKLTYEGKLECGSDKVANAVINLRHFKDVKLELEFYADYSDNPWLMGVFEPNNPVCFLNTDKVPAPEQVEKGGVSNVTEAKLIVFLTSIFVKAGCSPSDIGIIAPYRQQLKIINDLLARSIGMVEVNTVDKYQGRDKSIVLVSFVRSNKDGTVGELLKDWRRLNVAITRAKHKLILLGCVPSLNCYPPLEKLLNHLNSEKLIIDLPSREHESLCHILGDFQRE

YFP-DNA2 (WT) (human) = biological target: T3, YFP-DNA2 (WT) (human) (UniProt P51530); assay: pull-down; YFP-DNA2 (WT/C396S) from HEK293T lysate held on GFP-Trap agarose and washed; 50 μl of 25 nM purified FLAG-tagged DNA2 (WT or C396S) added, 1 h at 4 °C; wash 100 mM NaCl, 50 mM Tris-HCl pH 8.0, 10% glycerol, 1 mM EDTA, 0.1% NP-40, 2 mM DTT; Western blot; only the binder purified
T3 sequence: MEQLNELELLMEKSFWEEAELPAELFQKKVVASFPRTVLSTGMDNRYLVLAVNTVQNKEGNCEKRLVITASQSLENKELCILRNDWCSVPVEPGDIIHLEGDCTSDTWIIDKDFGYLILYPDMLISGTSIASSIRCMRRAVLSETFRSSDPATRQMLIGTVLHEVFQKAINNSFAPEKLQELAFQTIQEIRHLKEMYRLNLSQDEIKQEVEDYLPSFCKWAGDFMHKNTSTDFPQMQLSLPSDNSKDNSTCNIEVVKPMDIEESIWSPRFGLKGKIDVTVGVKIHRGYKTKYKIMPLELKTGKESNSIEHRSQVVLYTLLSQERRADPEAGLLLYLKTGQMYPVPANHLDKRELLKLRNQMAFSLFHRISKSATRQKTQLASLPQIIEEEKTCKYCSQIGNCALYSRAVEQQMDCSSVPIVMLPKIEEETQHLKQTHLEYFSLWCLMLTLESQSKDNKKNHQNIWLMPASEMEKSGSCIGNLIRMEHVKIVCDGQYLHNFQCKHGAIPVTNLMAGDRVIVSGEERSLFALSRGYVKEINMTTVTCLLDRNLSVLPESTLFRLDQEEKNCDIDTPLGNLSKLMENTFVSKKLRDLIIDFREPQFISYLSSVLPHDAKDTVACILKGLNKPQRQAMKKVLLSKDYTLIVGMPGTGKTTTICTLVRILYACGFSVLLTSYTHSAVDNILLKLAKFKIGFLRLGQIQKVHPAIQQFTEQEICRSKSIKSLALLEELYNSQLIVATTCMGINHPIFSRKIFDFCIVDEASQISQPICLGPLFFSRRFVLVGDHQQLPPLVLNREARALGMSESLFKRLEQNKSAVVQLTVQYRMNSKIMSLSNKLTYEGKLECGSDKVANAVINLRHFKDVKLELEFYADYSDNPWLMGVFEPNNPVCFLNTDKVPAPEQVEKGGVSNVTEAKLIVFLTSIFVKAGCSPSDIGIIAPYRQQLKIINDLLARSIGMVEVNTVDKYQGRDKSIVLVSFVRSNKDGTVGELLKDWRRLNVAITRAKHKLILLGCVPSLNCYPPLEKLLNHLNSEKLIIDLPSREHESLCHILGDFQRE

YFP-DNA2 C396S (human) = biological target: T4, YFP-DNA2 C396S (human) (UniProt P51530); assay: as above
T4 sequence: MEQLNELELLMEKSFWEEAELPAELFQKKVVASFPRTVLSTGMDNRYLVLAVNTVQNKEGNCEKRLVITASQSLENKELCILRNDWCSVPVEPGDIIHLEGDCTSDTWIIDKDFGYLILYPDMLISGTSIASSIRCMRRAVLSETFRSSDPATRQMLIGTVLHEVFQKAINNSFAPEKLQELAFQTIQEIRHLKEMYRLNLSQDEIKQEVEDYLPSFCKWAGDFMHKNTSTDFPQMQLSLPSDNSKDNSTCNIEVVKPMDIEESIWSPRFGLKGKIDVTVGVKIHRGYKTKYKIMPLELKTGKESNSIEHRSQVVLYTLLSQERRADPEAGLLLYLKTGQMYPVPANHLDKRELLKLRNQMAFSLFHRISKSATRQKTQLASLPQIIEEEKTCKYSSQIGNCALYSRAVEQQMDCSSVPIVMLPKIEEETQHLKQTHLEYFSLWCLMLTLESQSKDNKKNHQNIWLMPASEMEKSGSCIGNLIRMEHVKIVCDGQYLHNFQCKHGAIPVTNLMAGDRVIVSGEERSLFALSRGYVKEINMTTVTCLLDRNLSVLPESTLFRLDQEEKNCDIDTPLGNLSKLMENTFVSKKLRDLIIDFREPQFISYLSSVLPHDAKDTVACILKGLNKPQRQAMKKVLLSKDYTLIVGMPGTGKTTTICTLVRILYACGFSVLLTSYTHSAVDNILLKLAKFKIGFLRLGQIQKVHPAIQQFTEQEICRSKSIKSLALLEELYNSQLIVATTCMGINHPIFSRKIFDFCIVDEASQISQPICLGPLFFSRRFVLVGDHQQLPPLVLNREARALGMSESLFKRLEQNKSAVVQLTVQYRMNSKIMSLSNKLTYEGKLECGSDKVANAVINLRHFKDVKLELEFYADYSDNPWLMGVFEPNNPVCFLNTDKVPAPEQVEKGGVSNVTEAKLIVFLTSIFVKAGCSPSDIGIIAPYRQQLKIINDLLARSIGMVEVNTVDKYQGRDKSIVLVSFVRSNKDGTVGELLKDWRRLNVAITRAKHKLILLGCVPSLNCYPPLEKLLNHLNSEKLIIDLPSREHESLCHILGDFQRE

- binding (FLAG-DNA2 C396S (human)): binds
- binding (FLAG-DNA2 C136S (human)): binds
Molecule: CIA-targeting complex (MMS19, CIAO1, MIP18) (from UniProt Q96T76 1-1030; O76071 1-339; Q9Y3D0 1-163)

- binding (YFP-DNA2 (WT) (human)): no binding (tested: 25 nM)
B1: purified FLAG-tagged wild-type DNA2 (His6-DNA2-FLAG) (enzyme, UniProt P51530 1-1060)
chain: MEQLNELELLMEKSFWEEAELPAELFQKKVVASFPRTVLSTGMDNRYLVLAVNTVQNKEGNCEKRLVITASQSLENKELCILRNDWCSVPVEPGDIIHLEGDCTSDTWIIDKDFGYLILYPDMLISGTSIASSIRCMRRAVLSETFRSSDPATRQMLIGTVLHEVFQKAINNSFAPEKLQELAFQTIQEIRHLKEMYRLNLSQDEIKQEVEDYLPSFCKWAGDFMHKNTSTDFPQMQLSLPSDNSKDNSTCNIEVVKPMDIEESIWSPRFGLKGKIDVTVGVKIHRGYKTKYKIMPLELKTGKESNSIEHRSQVVLYTLLSQERRADPEAGLLLYLKTGQMYPVPANHLDKRELLKLRNQMAFSLFHRISKSATRQKTQLASLPQIIEEEKTCKYCSQIGNCALYSRAVEQQMDCSSVPIVMLPKIEEETQHLKQTHLEYFSLWCLMLTLESQSKDNKKNHQNIWLMPASEMEKSGSCIGNLIRMEHVKIVCDGQYLHNFQCKHGAIPVTNLMAGDRVIVSGEERSLFALSRGYVKEINMTTVTCLLDRNLSVLPESTLFRLDQEEKNCDIDTPLGNLSKLMENTFVSKKLRDLIIDFREPQFISYLSSVLPHDAKDTVACILKGLNKPQRQAMKKVLLSKDYTLIVGMPGTGKTTTICTLVRILYACGFSVLLTSYTHSAVDNILLKLAKFKIGFLRLGQIQKVHPAIQQFTEQEICRSKSIKSLALLEELYNSQLIVATTCMGINHPIFSRKIFDFCIVDEASQISQPICLGPLFFSRRFVLVGDHQQLPPLVLNREARALGMSESLFKRLEQNKSAVVQLTVQYRMNSKIMSLSNKLTYEGKLECGSDKVANAVINLRHFKDVKLELEFYADYSDNPWLMGVFEPNNPVCFLNTDKVPAPEQVEKGGVSNVTEAKLIVFLTSIFVKAGCSPSDIGIIAPYRQQLKIINDLLARSIGMVEVNTVDKYQGRDKSIVLVSFVRSNKDGTVGELLKDWRRLNVAITRAKHKLILLGCVPSLNCYPPLEKLLNHLNSEKLIIDLPSREHESLCHILGDFQRE

- binding (YFP-DNA2 C396S (human)): no binding (tested: 25 nM)
B2: purified FLAG-tagged DNA2 C396S (His6-DNA2-FLAG C396S) (enzyme, UniProt P51530 1-1060)
chain: MEQLNELELLMEKSFWEEAELPAELFQKKVVASFPRTVLSTGMDNRYLVLAVNTVQNKEGNCEKRLVITASQSLENKELCILRNDWCSVPVEPGDIIHLEGDCTSDTWIIDKDFGYLILYPDMLISGTSIASSIRCMRRAVLSETFRSSDPATRQMLIGTVLHEVFQKAINNSFAPEKLQELAFQTIQEIRHLKEMYRLNLSQDEIKQEVEDYLPSFCKWAGDFMHKNTSTDFPQMQLSLPSDNSKDNSTCNIEVVKPMDIEESIWSPRFGLKGKIDVTVGVKIHRGYKTKYKIMPLELKTGKESNSIEHRSQVVLYTLLSQERRADPEAGLLLYLKTGQMYPVPANHLDKRELLKLRNQMAFSLFHRISKSATRQKTQLASLPQIIEEEKTCKYSSQIGNCALYSRAVEQQMDCSSVPIVMLPKIEEETQHLKQTHLEYFSLWCLMLTLESQSKDNKKNHQNIWLMPASEMEKSGSCIGNLIRMEHVKIVCDGQYLHNFQCKHGAIPVTNLMAGDRVIVSGEERSLFALSRGYVKEINMTTVTCLLDRNLSVLPESTLFRLDQEEKNCDIDTPLGNLSKLMENTFVSKKLRDLIIDFREPQFISYLSSVLPHDAKDTVACILKGLNKPQRQAMKKVLLSKDYTLIVGMPGTGKTTTICTLVRILYACGFSVLLTSYTHSAVDNILLKLAKFKIGFLRLGQIQKVHPAIQQFTEQEICRSKSIKSLALLEELYNSQLIVATTCMGINHPIFSRKIFDFCIVDEASQISQPICLGPLFFSRRFVLVGDHQQLPPLVLNREARALGMSESLFKRLEQNKSAVVQLTVQYRMNSKIMSLSNKLTYEGKLECGSDKVANAVINLRHFKDVKLELEFYADYSDNPWLMGVFEPNNPVCFLNTDKVPAPEQVEKGGVSNVTEAKLIVFLTSIFVKAGCSPSDIGIIAPYRQQLKIINDLLARSIGMVEVNTVDKYQGRDKSIVLVSFVRSNKDGTVGELLKDWRRLNVAITRAKHKLILLGCVPSLNCYPPLEKLLNHLNSEKLIIDLPSREHESLCHILGDFQRE
